Values from PubChem BioAssay AID602196 (INSERM, 2012).
Aim: 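Genes whose knock-down alters cisplatin killing of lung cancer cells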. Cell system: human A549 lung cancer cells. Reagent: siRNA pair against human genes. Timing: 48 h transfection before cisplatin; time from cisplatin to read-out not stated. Conditions: cisplatin at a dose killing half of control-siRNA cells; exact dose and duration not given. Measurement: 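Shift in cisplatin death relative to control siRNA, from -50 (all cells die) to +50 (no cells die); siRNAs harmful on their own scored 0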. Scale: two-siRNA summed score (-2 to +2): higher = both siRNAs protect from cisplatin killing; -2 means both sensitise; mean protection from cisplatin (shift in death) and protection from cisplatin (shift in death), siRNA C and protection from cisplatin (shift in death), siRNA D: higher = protection from cisplatin killing. Rule for the call: 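siRNAs harmful alone (LDH or WST-1) get 0; others get +1 for less and -1 for more cisplatin killing; genes are active when the two siRNAs give the same sign, summing to ±2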. Meaning of the calls: active = both siRNAs shift cisplatin killing the same way; inactive = no consistent shift, or siRNA harmful alone.
This is an unselected part of about 23,000 deposited reagents. In the full data, 455 (2%) got an active call. 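Active includes both protection and sensitisation; some change values fall well beyond the stated -50 to +50 range.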 Reagents against one gene are numbered here. Reagent sequences are not shown. The record does not give: the amount of reagent.

Gene	reagent no.	two-siRNA summed score (-2 to +2)	mean protection from cisplatin (shift in death) (%)	protection from cisplatin (shift in death), siRNA C (%)	protection from cisplatin (shift in death), siRNA D (%)	activity call
FAM3B	1	0	-4.8	7.2	-16.7	inactive
MSH3	1	0	8.4	9.3	7.5	inactive
AIFM3	1	0	-14.4	-33.5	4.7	inactive
SHISA2	1	0	8.5	8.7	8.2	inactive
ZDHHC15	1	0	12.1	16.9	7.3	inactive
PRRG4	1	-1	-6	-13	1	inactive
LOC400304	1	0	-0.7	-16	14.6	inactive
OR4S2	1	1	15.3	21.5	9.2	inactive
S100A7A	1	2	11.2	12.3	10.1	active
PCDHA11	1	0	12.9	12.3	13.5	inactive
ZNF266	1	0	20.2	27.7	12.7	inactive
GOSR2	1	-1	-2.8	12.7	-18.3	inactive
LINC01376	1	0	7.5	7.3	7.7	inactive
MKNK2	1	1	10.4	7.2	13.5	inactive
KHDC4	1	0	8.5	9.6	7.5	inactive
MRPS11	1	-1	-7.3	6.9	-21.6	inactive
RAX	1	0	-5.5	-5.1	-5.9	inactive
SLC25A47	1	0	1.3	-6.3	8.9	inactive
OR56B4	1	0	3.5	7.9	-0.8	inactive
C9orf153	1	1	23.2	15.6	30.8	inactive
ALDH1A3	1	-1	-14.8	-9.2	-20.3	inactive
ALDH1A3	2	0	-0.2	-1.6	1.1	inactive

3 of these entries, reformatted:
Gene,reagent no.,two-siRNA summed score (-2 to +2),mean protection from cisplatin (shift in death) (%),"protection from cisplatin (shift in death), siRNA C (%)","protection from cisplatin (shift in death), siRNA D (%)",activity call
LOC400304,1,0,-0.7,-16,14.6,inactive
OR4S2,1,1,15.3,21.5,9.2,inactive
S100A7A,1,2,11.2,12.3,10.1,active

Additional records follow:
Gene	reagent no.	two-siRNA summed score (-2 to +2)	mean protection from cisplatin (shift in death) (%)	protection from cisplatin (shift in death), siRNA C (%)	protection from cisplatin (shift in death), siRNA D (%)	activity call
LOC399867	1	0	5.7	5.2	6.3	inactive
LOC441959	1	1	9.6	14.8	4.4	inactive
GPRASP1	1	0	-5.5	-4.7	-6.4	inactive
ELF5	1	0	5.5	2.3	8.6	inactive
EVA1C	1	1	-0.8	13.3	-14.9	inactive
ERFL	1	2	16.8	22.1	11.5	active
MOCS2	1	-1	-12	-5	-19	inactive
MAP2K4	1	1	9.7	2.3	17.1	inactive
SFT2D2	1	0	11	9.5	12.5	inactive
PSMB6	1	0	12.6	9.8	15.4	inactive
PCGF2	1	1	9	-6.7	24.7	inactive
MRPS18B	1	0	9.6	3.6	15.5	inactive
ADGRG3	1	1	5.3	-0.3	10.9	inactive
LBX1	1	1	2.4	13.4	-8.5	inactive
LOC440771	1	1	9.9	18.3	1.5	inactive
OTUD4	1	1	13	17.6	8.4	inactive
LOC441909	1	0	12.9	12.5	13.2	inactive
OR2AT4	1	0	39.5	70.4	8.6	inactive
MRPL47	1	0	8.9	9.1	8.7	inactive
COX6A1	1	0	10.8	9.7	11.9	inactive
TYW1	1	0	6	6.8	5.2	inactive
BPIFA1	1	1	7.8	10.3	5.3	inactive
ATXN3	1	0	3.6	-15.2	22.3	inactive
CLCN4	1	-1	-16.4	-7.8	-25	inactive
NR4A1	1	0	-16.2	-8.9	-23.6	inactive
LRRC75A	1	1	9.8	-8.8	28.4	inactive
EIF3M	1	0	25.3	25.1	25.5	inactive
SH3BP4	1	0	-6.8	-6.6	-6.9	inactive
ARL5C	1	1	12.9	17.4	8.5	inactive
LOC284387	1	0	12.3	29.5	-4.8	inactive
ARPC1B	1	0	6.1	8.9	3.2	inactive
ZNF786	1	2	20.2	14.7	25.6	active
ETS2	1	1	21.9	27.9	15.9	inactive
MOG	1	0	13.4	11.2	15.5	inactive
BAG3	1	0	6.4	-0.8	13.6	inactive
